Assay results taken from PubChem BioAssay AID901 (National Center for Advancing Translational Sciences (NCATS), 2007).
The other results are listed elsewhere or left out. Shown are side measurements of this screen, not its main read-out; they come without a call. Compounds called inactive in the main read-out are mostly missing here. Words in brackets tell the shape of the fitted curve; partial curves, single points and poor fits give uncertain potencies.

Test: qHTS Assay for Identifying the Cell-Membrane Permeable IMPase Inhibitors
Conditions: CHO-M1 cells, IP1 accumulation, HTRF TR-FRET ratio; measured here: donor channel 620 nm AC50

SMILES | AC50
Cc1ccc2c(c1)N(CC(=O)NCCc1c[nH]c3ccccc13)C(=O)CO2 | 3.16 µM [rising, single point]
Cc1cc(N2CCOCC2)nc2ccc(NC(=O)CCC(=O)N3CCCCC3)cc12 | 0.01 µM [rising, full curve, poor fit]
CCCCS(=O)(=O)CC(O)CSc1nc(-c2ccc(C)cc2)cc(-c2ccccc2)c1C#N (stereo unspecified) | 35.5 µM [rising, single point]
CCOC(=O)c1ccc(Nc2ccc(-c3ccc(OC)c(OC)c3)nn2)cc1 | 3.16 µM [rising, single point]
COCCCNC(=O)CNC(=S)N(Cc1ccc(F)cc1)C1CCCCC1 | 0.0126 µM [rising, full curve, poor fit]
CCOC(=O)C(C)Sc1ncc(OC)c(=O)[nH]1 (stereo unspecified) | 2.82 µM [rising, full curve, poor fit]
O=C(Nc1ccccc1-c1nc2ccccc2s1)c1cccnc1Cl | 0.251 µM [rising, full curve]
COc1ccc(-c2nc(CCNC(=O)c3cccs3)cs2)cc1 | 0.1 µM [falling, full curve, poor fit]
COC(=O)c1cc(OC)c(OC)cc1NC(=O)Nc1ccc(OC)cc1OC | 31.6 µM [falling, single point]
Cc1cc(Br)c2c(c1)=C(c1sc(N3CCCCCC3)nc1O)C(=O)N=2 | 0.0158 µM [falling, partial curve, poor fit]
O=C(Nc1cccnc1)c1cc(-c2ccc3c(c2)OCO3)on1 | 0.00398 µM [rising, full curve, poor fit]
COc1ccc(C(=O)Nc2ccccn2)cc1 | 1 µM [falling, full curve]
Cc1nc(SC2CCOC2=O)c2c(C)c(C)sc2n1 (stereo unspecified) | 10 µM [rising, partial curve]
CCC1(CC)Cc2ccccc2C(N)=C1C#N | 0.158 µM [falling, partial curve, poor fit]
Cc1cnn(-c2ccc3nnc(-c4ccc(Br)cc4)n3n2)c1 | 0.00501 µM [falling, full curve, poor fit]
CC(=O)c1cc2c(cc1NC(=O)CN1CCN(c3cccc(C(F)(F)F)c3)CC1)OCO2 | 1.78 µM [rising, full curve, poor fit]
CN(Cc1c(O)ccc2c1oc(=O)c1ccccc12)C1CCCCC1 | 12.6 µM [rising, single point]
CC(=O)CSc1ncnc2c1oc1ccccc12 | 25.1 µM [rising, single point]
N#Cc1sc2nc(-c3cccs3)cc(-c3ccc(Cl)cc3)c2c1N | 12.6 µM [rising, single point]
Cc1ccc(CN2C(=O)C3CCCN3c3ccc(S(=O)(=O)N4CCOCC4)cc32)cc1 (stereo unspecified) | 0.0126 µM [falling, full curve, poor fit]
CC(=O)NCC(=O)OCC(=O)c1ccc(C)c(C)c1 | 6.31 µM [falling, single point]
COc1ccc2cc(C3(C)NC(=O)N(CC(=O)Nc4c(C)n(C)n(-c5ccccc5)c4=O)C3=O)ccc2c1 (stereo unspecified) | 2.82 µM [falling, single point]

SMILES | AC50
CCOC(=O)C1CCN(C(=O)CNS(=O)(=O)c2ccc(Br)s2)CC1 | 0.0158 µM [rising, partial curve, poor fit]
c1ccc(-c2cnc(SCCN3CCOCC3)n2CC2CCCO2)cc1 (stereo unspecified) | 0.00316 µM [falling, full curve, poor fit]
COc1ccccc1-n1c(=O)oc2ccc(Cl)cc2c1=O | 1.26 µM [rising, single point]
N#Cc1c(N)nc(SCC(=O)NCCc2ccccc2)c(C#N)c1-c1cccs1 | 20 µM [rising, single point]
CC(C)c1cc(C(N)=O)c(NC(=O)c2cccc(COc3ccc(Cl)cc3)c2)s1 | 0.316 µM [falling, full curve, poor fit]
Cc1onc(-c2ccccc2Cl)c1C(=O)Nc1nnc(-c2ccc(Cl)cc2Cl)s1 | 14.1 µM [rising, single point]
Cc1ccccc1Cn1c(C(=O)OC(C)C)cc2c1ccn2C | 3.98 µM [falling, single point]
Cc1ccc(-n2c(SCC(=O)Nc3c(C)cccc3C)nc(O)c(C)c2=O)cc1 | 5.62 µM [falling, single point]
Cc1ccccc1C(c1c(C)n(C)n(-c2ccccc2)c1=O)c1c(C)n(C)n(-c2ccccc2)c1=O | 5.62 µM [rising, single point]
O=C1c2ccccc2C(=O)N1CCSc1nncs1 | 20 µM [falling, single point]
Cc1c(Br)c([N+](=O)[O-])nn1CC(=O)Nc1sc2c(c1C(=O)OC(C)C)CCCC2 | 15.8 µM [falling, single point]
Cc1ccc(NC(=S)NCCO)c(C)c1 | 0.794 µM [falling, partial curve, poor fit]
CCCC(=O)Nc1ccc(NC(=O)c2sc3ccccc3c2Cl)cc1 | 14.1 µM [rising, single point]
CCc1c(C)nc(SCC(=O)N2CCc3ccccc32)[nH]c1=O | 0.891 µM [falling, full curve, poor fit]
COc1cc2c(cc1NC(=O)CN1CCN(S(=O)(=O)c3ccc(C)cc3)CC1)oc1ccccc12 | 3.16 µM [rising, single point]
COc1ccc(NC(=O)c2c(Cl)n(C)c3ccccc23)cc1 | 3.16 µM [falling, partial curve]
O=C(NCCc1ccccc1)C1CC(c2ccccc2O)=NO1 (stereo unspecified) | 0.01 µM [falling, full curve, poor fit]
COc1ccc(C(=O)NC(=S)N(Cc2ccccc2)Cc2ccccc2)cc1 | 1.58 µM [rising, partial curve, poor fit]
CS(=O)(=O)N(Cc1ccc(C(=O)Nc2ccccc2Sc2ccccc2)cc1)c1ccccc1 | 3.98 µM [rising, full curve, poor fit]
COc1ccc2c(c1OC)C(=O)N(c1ccc(C)c(C)c1)C2=O | 20 µM [falling, single point]
O=C(Nc1ccc(NC(=O)c2cccs2)cc1)c1cccc(Br)c1 | 35.5 µM [rising, single point]
Cn1c(COc2ccc3ccccc3c2)nnc1SCC(=O)OC1CCCCC1 | 11.2 µM [falling, single point]

Given tab-delimited: entries from further up
SMILES	AC50
Cc1c(Br)c([N+](=O)[O-])nn1CC(=O)Nc1sc2c(c1C(=O)OC(C)C)CCCC2	15.8 µM [falling, single point]
Cc1ccc(NC(=S)NCCO)c(C)c1	0.794 µM [falling, partial curve, poor fit]
CCCC(=O)Nc1ccc(NC(=O)c2sc3ccccc3c2Cl)cc1	14.1 µM [rising, single point]
CCc1c(C)nc(SCC(=O)N2CCc3ccccc32)[nH]c1=O	0.891 µM [falling, full curve, poor fit]

Next records:

SMILES | AC50
Cc1cc(=O)[nH]c(SCC(=O)c2ccc(C)c(C)c2)n1 | 3.16 µM [falling, full curve]
CC(C)c1ccc2c(c1)C1(NN=C(c3ccccc3)S1)C(=O)N2 (stereo unspecified) | 1 µM [falling, full curve]
COc1cc(-c2ccc(N=Nc3ccc4c(S(=O)(=O)O)cc(S(=O)(=O)O)c(N)c4c3O)c(OC)c2)ccc1N=Nc1ccc2c(S(=O)(=O)O)cc(S(=O)(=O)O)c(N)c2c1O | 15.8 µM [falling, partial curve]
COC(=O)c1cc(Br)c(=O)n(-c2nccs2)c1 | 10 µM [rising, partial curve]
CCCOc1ccc(C2c3c(oc4cc(C)c(C)cc4c3=O)C(=O)N2CCCN(C)C)cc1 (stereo unspecified) | 35.5 µM [rising, single point]
Cc1cccc(OCC(=O)Nc2ccc(-c3nc4cc(C)ccc4o3)c(O)c2)c1 | 3.16 µM [rising, partial curve]
CCc1ccc(CNc2ccc3c(c2)ncn3C)cc1 | 5.01 µM [falling, single point]
CCC(C)(C)NC(=O)c1ccc(S(=O)(=O)N(C)c2ccccc2OC)cc1 | 0.126 µM [falling, full curve]
COc1cc2ccccc2cc1C(=O)Nc1cc(-c2nc3ccccc3o2)ccc1C | 22.4 µM [falling, single point]
Clc1cccc(CNc2nnnn2-c2ccccc2)c1 | 6.31 µM [rising, full curve, poor fit]
Cc1cc2cc3c(cc2nc1SCC(=O)Nc1ccccc1)CCC3 | 31.6 µM [rising, single point]
O=C(Cn1c2ccccc2c(=O)c2ccccc21)N/N=C/c1cc([N+](=O)[O-])ccc1N1CCCCCC1 | 0.316 µM [rising, single point]
CCN=c1scc(C)n1/N=C/c1ccc(O)c(O)c1O | 20 µM [falling, single point]
COc1ccc(-n2c(=O)[nH]cc(C(=O)N3CCc4ccccc43)c2=O)cc1 | 3.16 µM [falling, single point]
Cc1cc(SCCC(=O)O)nc2c(C)cccc12 | 12.6 µM [rising, partial curve]
CC(C)(C)c1ccc(OCc2nc3ccccc3n2CCOc2ccccc2)cc1 | 1.12 µM [falling, full curve, poor fit]
CCc1ccc2oc(=O)cc(CN3CCN(c4ccc(F)cc4)CC3)c2c1 | 0.02 µM [falling, full curve]
CS(=O)(=O)N1CCN(C(=O)c2cc3ccccc3oc2=O)CC1 | 35.5 µM [falling, single point]
CC1(C)CC(=O)C(N=Nc2ccc3ncsc3c2)=C(O)C1 | 20 µM [rising, single point]
O=c1c2cc(-c3ccccc3)sc2ncn1-n1cccc1 | 6.31 µM [falling, single point]
O=C(Nc1ccc(Cl)cc1)NC1CCCc2ccccc21 (stereo unspecified) | 0.631 µM [falling, full curve, poor fit]
CC(=O)N(c1ccccc1)c1nc(C)cc(C)c1C#N | 0.794 µM [rising, full curve, poor fit]
